In paper doi:10.1101/834135 one finds binding data, which are given here for one molecule.

Results are given in words; binding and its absence hold for the method and conditions named. In cells and extracts the contact can be indirect. Some binding calls cover weakened binding; strength is not graded here.

This test concerns the target T1, Sparc/osteonectin, cwcv and kazal-like domains proteoglycan 1 (SPOCK1) (human (endogenous in MCF7 and SKBR3)) (UniProt Q08629).
T1 sequence: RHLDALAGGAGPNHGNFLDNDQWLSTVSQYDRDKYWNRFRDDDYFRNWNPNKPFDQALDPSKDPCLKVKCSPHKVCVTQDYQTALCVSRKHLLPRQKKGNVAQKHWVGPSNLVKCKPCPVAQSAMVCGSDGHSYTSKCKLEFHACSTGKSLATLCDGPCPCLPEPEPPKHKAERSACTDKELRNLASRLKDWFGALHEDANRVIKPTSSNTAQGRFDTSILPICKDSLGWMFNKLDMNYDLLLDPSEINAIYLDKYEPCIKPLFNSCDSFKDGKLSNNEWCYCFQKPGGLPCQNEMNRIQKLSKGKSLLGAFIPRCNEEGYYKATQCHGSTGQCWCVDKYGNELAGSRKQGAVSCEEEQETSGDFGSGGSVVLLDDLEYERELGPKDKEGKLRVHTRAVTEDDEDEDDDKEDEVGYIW
As to the kind of experiment: co-IP.

B1: SIX homeobox 1 (SIX1) (protein, UniProt Q15475 1-284)
chain: MSMLPSFGFTQEQVACVCEVLQQGGNLERLGRFLWSLPACDHLHKNESVLKAKAVVAFHRGNFRELYKILESHQFSPHNHPKLQQLWLKAHYVEAEKLRGRPLGAVGKYRVRRKFPLPRTIWDGEETSYCFKEKSRGVLREWYAHNPYPSPREKRELAEATGLTTTQVSNWFKNRRQRDRAAEAKERENTENNNSSSNKQNQLSPLEGGKPLMSSSEEEFSPPQSPDQNSVLLLQGNMGHARSSNYSLPGLTASQPSHGLQTHQHQLQDSLLGPLTSSLVDLGS
Take B1: the binding entry is listed as “binds”.
